# Results taken from PubChem BioAssay AID504834 (National Center for Advancing Translational Sciences (NCATS), 2011).
# The campaign covered roughly 320,000 compounds. About 22,000 (6.9%) were called active. Inconclusive results, whose numbers are uncertain, are shown with a selection of clear calls. Calls come from the whole dose curve; as a rule, active = well fitted inhibition curve with a large enough effect; inconclusive = small, poorly fitted or top-dose-only effect, or another doubt; inactive = no such curve, though single readings can be large or run the other way. Potencies beside an inconclusive call are fits to weak or partial responses and may not hold up.
# Assay: Primary qHTS for delayed death inhibitors of the malarial parasite plastid, 96 hour incubation
# Details: P. falciparum luciferase reporter growth; series mostly up to 28.7 µM
# How it was run: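 P. falciparum expressing integrated firefly luciferase grown in erythrocytes (2% hematocrit, 0.05% parasitemia final) with compounds for 96 hours at 37 C, 5% CO2. Growth inhibition read as loss of luminescence after adding luciferase detection reagent.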
# % is set by controls: 0 for no effect and ±100 for the full control effect; potency is the fitted concentration of half-maximal effect.
Structure (SMILES),Potency,"activity change, negative = inhibition"
NS(=O)(=O)c1ccc(CCNC(=O)c2cc([N+](=O)[O-])ccc2N2CCCCC2)cc1,"inconclusive: 9.28 µM [inhibitor, partial curve]",–
NC(=O)CSc1nc2ccccc2n1Cc1ccccc1,inactive,–
Cc1cc(C(=O)COC(=O)C2=NNC(=O)CC2)c(C)n1-c1ccc(OC(F)F)cc1,"inconclusive: 18.5 µM [inhibitor, single point]",–
CN(C)CCCNC(=O)c1ccc(-c2nc(-c3ccc(Cl)cc3)cs2)cc1,active: 1.47 µM,–
Cc1ccc(NC(=O)c2ccc(NCc3ccc(F)cc3)nc2)cc1,"inconclusive: 0.147 µM [inhibitor, full curve, poor fit]",–
Cc1ccc(NC(=O)Nn2cnnc2)cc1Cl,"inconclusive: 18.5 µM [inhibitor, single point]",–
Cc1ccc(N2CCOCC2)c2c1C(=O)c1ccccc1C2=O,"inconclusive: 6.57 µM [inhibitor, partial curve, poor fit]",–
COc1ccc(CNC(=O)CN(C)S(=O)(=O)c2ccc3c(c2)n(C)c(=O)c(=O)n3C)cc1,"inconclusive: 18.5 µM [inhibitor, single point]",–
COCCCNc1nc2c([nH]1)c(=O)[nH]c(=O)n2C,inactive,–
Cc1oc(-c2cccs2)nc1CN1CCN(C(C)C)C(CCO)C1 (configuration not stated),active: 10.4 µM,–
COc1ccccc1N1CC(C(=O)Nc2nnc(SCc3ccccn3)s2)CC1=O (configuration not stated),"inconclusive: 11.7 µM [inhibitor, single point]",–
Cc1ccc(SCCNC(=S)Nc2cc(C)cc(C)c2)cc1,"inconclusive: 20.8 µM [inhibitor, partial curve, poor fit]",–
Cc1ccc2nc(NC(=O)C3CCN(C(=O)c4ccc(F)cc4)CC3)sc2c1,inactive,–
CCn1ccnc1[C@@H]1C[C@H]2CN(Cc3ccccc3OC)C(=O)[C@]23CCCN13,active: 9.28 µM,–
COc1ccc(C2SCCN2C(=S)Nc2cccc(Cl)c2)cc1 (configuration not stated),active: 2.08 µM,–
CCOC(=O)N1CCN(CC(=O)Nc2ccc(C)cc2)CC1,inactive,–
CSc1cccc(NC(=O)CCCn2c(=O)c3cccn3c3cccnc32)c1,inactive,–
CCc1cc(C(=O)NC2CCCN(Cc3ccccc3F)C2)n(C)n1 (configuration not stated),"inconclusive: 18.5 µM [inhibitor, single point]",–
CC(=O)Nc1ccc2c(c1)C(=O)N(c1ccc(C)cc1)C2=O,inactive,–
Cc1ccc(C(CC(=O)N2CCNCC2)c2ccccc2)c(O)c1C (configuration not stated),"inconclusive: 5.22 µM [inhibitor, partial curve, poor fit]",–
Cc1ccc(N=C2CSC(=O)N2)cc1,inactive,–
CCOC(=O)[C@H]1[C@H]2COc3ccc(Cl)cc3[C@@H]2N2C(=O)c3ccccc3NC(=O)[C@@]12C,"inconclusive: 18.5 µM [inhibitor, single point]",–
COc1cc(NC(=O)Cn2cnc(S(=O)(=O)N3CCCC3)c2)cc(OC)c1OC,"inconclusive: 18.5 µM [inhibitor, single point]",–
Cn1cccc1C(=O)NNC(=O)COc1ccccc1F,inactive,–

Structure (SMILES),Potency,"activity change, negative = inhibition"
COc1ccc(Br)cc1CNC(=O)Cn1nc(C)n2cccc2c1=O,inactive,–
Cc1nn(C)cc1C(=O)/C=C/c1ccc([N+](=O)[O-])cc1,active: 4.65 µM,–
COc1cccc(C(=O)CN(C(=O)c2ccc(Cl)c(Cl)c2)N2C(=O)C3CCCCC3C2=O)c1 (configuration not stated),"inconclusive: 8.28 µM [inhibitor, partial curve, poor fit]",–
Cc1cc(NC(=O)C(C)(C)C)no1,"inconclusive: 0.0262 µM [inhibitor, partial curve, poor fit]",–
Cc1ccccc1C(=O)NCCNC(=O)c1cnccn1,inactive,–
COc1ccccc1OCC(=O)Nc1sc2c(c1C(=O)NCC1CCCO1)CCC2 (configuration not stated),active: 10.4 µM,–
O=C(Nc1ccc(OC(F)(F)F)cc1)Nc1cccnc1,active: 10.4 µM,–
CC1=C(C(=O)Nc2ccccc2C(=O)NC2CCC(C)CC2)SCCO1 (configuration not stated),"inconclusive: 14.7 µM [inhibitor, single point]",–
Cn1c(SCC(=O)NC2CCCCC2)nnc1-c1cc2ccccc2o1,"inconclusive: 18.5 µM [inhibitor, single point]",–
Cc1nc2cc(-c3cccc(F)c3)nn2c(C)c1CCC(=O)N1CCC2(CC1)OCCO2,"inconclusive: 13.1 µM [inhibitor, partial curve, poor fit]",–
Cc1ccccc1Nc1nc(-c2cccnc2)nc2ccccc12,"inconclusive: 11.7 µM [inhibitor, partial curve, poor fit]",–
COc1ccc(NC(=O)NCc2ccc3c(c2)OCO3)cc1OC,"inconclusive: 0.0037 µM [inhibitor, full curve, poor fit]",–
CC1CN(C(=S)Nc2ccccc2)N(c2ccccc2)C1 (configuration not stated),"inconclusive: 6.57 µM [inhibitor, partial curve, poor fit]",–
Cc1ccc(-c2nnc(SCC(=O)Nc3nc4c(s3)CCCC4)n2C)cc1,"inconclusive: 20.8 µM [inhibitor, partial curve, poor fit]",–
O=C1OC(OC(=O)c2cccnc2Nc2cccc(C(F)(F)F)c2)c2ccccc21 (configuration not stated),inactive,–
O=P(NC(c1ccccc1)c1ccccc1)(Oc1ccccc1)Oc1ccccc1,"inconclusive: 13.1 µM [inhibitor, single point]",–
O=C(CCCCCN1C(=O)c2cccc3cccc(c23)C1=O)N1CCOCC1,"inconclusive: 9.28 µM [inhibitor, single point]",–
CC/C=C/C(=O)N1CC2(CC(c3cccc(NC(=O)COc4ccc(Cl)cc4)c3)=NO2)C[C@H]1C(N)=O (some centres not stated),active: 4.65 µM,–
O=C(Cn1nc(-c2ccccc2)ccc1=O)NCc1ccc2c(c1)OCO2,active: 1.31 µM,–
CCc1ccc(C(C(=O)NCCOC)N(C(=O)Cn2nnc3ccccc32)c2cccnc2)cc1 (configuration not stated),"inconclusive: 11.7 µM [inhibitor, single point]",–
FC(F)(F)c1cc(-c2ccccc2)nc(N2CCCCC2)n1,inactive,–
O=C(Nc1ccc(F)cc1)c1sc2cc(C(F)(F)F)cnc2c1-c1cccs1,"inconclusive: 2.62 µM [inhibitor, full curve, poor fit]",–
Nc1c(C(=O)N/N=C/c2ccccc2Cl)oc2nc(-c3ccccc3)cc(-c3ccco3)c12,"inconclusive: 10.4 µM [inhibitor, partial curve]",–
COc1cccc(C2=NOC(C(=O)NC3CCCCC3)C2)c1 (configuration not stated),"inconclusive: 10.4 µM [inhibitor, single point]",–

# Taken from above:
# For Potency, COc1cccc(C2=NOC(C(=O)NC3CCCCC3)C2)c1 (configuration not stated) has inconclusive: 10.4 µM [inhibitor, single point]
# For Potency, O=C1OC(OC(=O)c2cccnc2Nc2cccc(C(F)(F)F)c2)c2ccccc21 (configuration not stated) has inactive
# For Potency, Nc1c(C(=O)N/N=C/c2ccccc2Cl)oc2nc(-c3ccccc3)cc(-c3ccco3)c12 has inconclusive: 10.4 µM [inhibitor, partial curve]
# For Potency, COc1ccccc1OCC(=O)Nc1sc2c(c1C(=O)NCC1CCCO1)CCC2 (configuration not stated) has active: 10.4 µM
# For Potency, O=C(Cn1nc(-c2ccccc2)ccc1=O)NCc1ccc2c(c1)OCO2 has active: 1.31 µM

# The list continues.

Structure (SMILES),Potency,"activity change, negative = inhibition"
COCCCn1c(SCC(=O)Nc2nc3ccccc3s2)nnc1-c1ccoc1C,"inconclusive: 8.28 µM [inhibitor, partial curve, poor fit]",–
COc1ccc(-n2nc(C(=O)NCC(=O)N3CCC(C(N)=O)CC3)c3ccccc3c2=O)cc1,"inconclusive: 11.7 µM [inhibitor, partial curve, poor fit]",–
O=C(OCC(=O)N1CCOCC1)c1ccc2c(c1)OCCO2,inactive,–
N#Cc1ccccc1CSc1nc2ccc(NC(=O)c3ccccc3C(=O)O)cc2s1,inactive,–
CC(C)C(=O)N1CCC2(CC1)Oc1ccc(Cl)cc1C(=O)C21CC(c2cccnc2)=NO1 (configuration not stated),"inconclusive: 18.5 µM [inhibitor, single point]",–
Cn1nnnc1SCC(=O)N1CCCCC1,"inconclusive: 4.15 µM [inhibitor, partial curve]",–
Cc1cnc(C(=O)OCC(=O)Nc2sc3c(c2C(N)=O)CCCC3)cn1,inactive,–
CCOC(=O)c1ccc(N2C(=O)C(CC(N)=O)N(CCc3ccc(OC)c(OC)c3)C2=S)cc1 (configuration not stated),inactive,–
O=C(NCCCc1ccccc1)c1c(O)nc2sccn2c1=O,"inconclusive: 11.7 µM [inhibitor, single point]",–
O=S(=O)(Nc1ccc2nc(-c3ccc(Br)o3)[nH]c2c1)c1ccccc1,"inconclusive: 0.185 µM [inhibitor, full curve, poor fit]",–
O=C(c1cn(Cc2ccccc2)nc1-c1ccc(Cl)cc1)N1CCN(c2ccccn2)CC1,active: 9.28 µM,–
O=c1[nH]c(/C=C/c2ccccc2)c([N+](=O)[O-])c(=O)[nH]1,active: 10.4 µM,–
CCCOc1ccc(Oc2nc(-c3ccncc3)nc3ccccc23)cc1,active: 1.04 µM,–
CCCC(=O)c1cc(F)c(N2CCOCC2)cc1C,active: 1.31 µM,–
CCN1C(=O)C(CC(=O)Nc2ccc(Br)cc2)N(CCCc2ccccc2)C1=S (configuration not stated),"inconclusive: 2.08 µM [inhibitor, full curve, poor fit]",–
CCOC(=O)C1=C(C)C(c2ccc(OC)cc2)NC(=O)N1 (configuration not stated),"inconclusive: 1.47 µM [inhibitor, full curve, poor fit]",–
CCOP(=O)(c1ccccc1)C(O)c1ccc(Br)cc1 (configuration not stated),inactive,–
CCCC(CCC(=O)Nc1ccn(-c2ccccc2)n1)C(=O)O (configuration not stated),inactive,–
Cc1ccc(S(=O)(=O)c2nc(-c3ccccc3)oc2NCc2cccnc2)cc1,"inconclusive: 18.5 µM [inhibitor, single point]",–
c1csc(-c2ccc3ccccc3n2)c1,–,inactive: -1.78% [at 5.75 µM]
CC1(c2ccc(Cl)c(Cl)c2)NC(=S)N2C1NC(=S)N2c1ccccc1 (configuration not stated),"inconclusive: 18.5 µM [inhibitor, partial curve, poor fit]",–
Cc1ccc(OCCCC(=O)Nc2ccccc2C(F)(F)F)cc1,inactive,–
COc1ccc(C)c2sc(N(CCN(C)C)C(=O)c3ccc4ccccc4c3)nc12,"inconclusive: 18.5 µM [inhibitor, partial curve, poor fit]",–
COc1ccc(-c2cc(C(=O)Nc3cccnc3Cl)no2)cc1OC,"inconclusive: 10.4 µM [inhibitor, partial curve]",–
